# From patent publication US20160200789A1, “IL4 CONJUGATED TO ANTIBODIES AGAINST EXTRACELLULAR MATRIX COMPONENTS” (PHILOGEN S.P.A., priority 2013, published 2016)
# Some of these results come from one statement about several compounds together.
# System: F9 teratocarcinoma
# Assay: Therapy studies in F9 teratocarcinoma-bearing mice
# Assay type: in vivo, mouse
# Details: tumour-bearing mice under treatment
# Method: In a dose finding study, F9 tumour-bearing mice were randomly grouped (n=5) and injected intravenously (i.v.) into the lateral tail vein when tumours were clearly palpable. […] The therapeutic antibodies were all dissolved in phosphate buffered saline (PBS) and this buffer was also used in the negative control treatment groups. The mice were monitored daily and tumour volume was measured with a calliper (volume=length×width^2×0.5).
row,Molecule,weight loss
1,"F8-IL2: F8 diabody fused to human IL2 (Frey et al., 2010)",< 5%
2,"F8-IL4: antibody F8 (anti-EDA of fibronectin) in diabody format fused at the C-terminus to murine interleukin 4 via 15 amino acid linker (protein, Synthetic sequence Amino acid sequence of F8 -(murine) IL4 of PCT/EP2014/053998, antibody F8 (anti-EDA of fibronectin) in diabody format fused at the C-terminus to murine interleukin 4 via 15 amino acid linker) EVQLLESGGGLVQPGGSLRLSCAASGFTFSLFTMSWVRQAPGKGLEWVSAISGSGGSTYYADSVKGRFTISRDNSKNTLYLQMNSLRAEDTAVYYCAKSTHLYLFDYWGQGTLVTVSSGGSGGEIVLTQSPGTLSLSPGERATLSCRASQSVSMPFLAWYQQKPGQAPRLLIYGASSRATGIPDRFSGSGSGTDFTLTISRLEPEDFAVYYCQQMRGRPPTFGQGTKVEIKSSSSGSSSSGSSSSGHIHGCDKNHLREIIGILNEVTGEGTPCTEMDVPNVLTATKNTTESELVCRASKVLRIFYLKHGKTPCLKKNSSVLMELQRLFRAFRCLDSSISCTMNESKSTSLKDFLESLKSIMQMDYS",< 5%
3,"F8-IL12: IL12-based immunocytokine: murine IL12 fused to single chain F8 diabody (protein, Synthetic sequence Amino acid sequence of (murine)IL12-F8-F8 of PCT/EP2014/053998, IL12-based immunocytokine: murine IL12 fused to single chain F8 diabody) MWELEKDVYVVEVDWTPDAPGETVNLTCDTPEEDDITWTSDQRHGVIGSGKTLTITVKEFLDAGQYTCHKGGETLSHSHLLLHKKENGIWSTEILKNFKNKTFLKCEAPNYSGRFTCSWLVQRNMDLKFNIKSSSSSPDSRAVTCGMASLSAEKVTLDQRDYEKYSVSCQEDVTCPTAEETLPIELALEARQQNKYENYSTSFFIRDIIKPDPPKNLQMKPLKNSQVEVSWEYPDSWSTPHSYFSLKFFVRIQRKKEKMKETEEGCNQKGAFLVEKTSTEVQCKGGNVCVQAQDRYYNSSCSKWACVPCRVRSGGGGSGGGGSGGGGSRVIPVSGPARCLSQSRNLLKTTDDMVKTAREKLKHYSCTAEDIDHEDITRDQTSTLKTCLPLELHKNESCLATRETSSTTRGSCLPPQKTSLMMTLCLGSIYEDLKMYQTEFQAINAALQNHNHQQIILDKGMLVAIDELMQSLNHNGETLRQKPPVGEADPYRVKMKLCILLHAFSTRVVTINRVMGYLSSAGSADGGEVQLLESGGGLVQPGGSLRLSCAASGFTFSLFTMSWVRQAPGKGLEWVSAISGSGGSTYYADSVKGRFTISRDNSKNTLYLQMNSLRAEDTAVYYCAKSTHLYLFDYWGQGTLVTVSSGGSGGEIVLTQSPGTLSLSPGERATLSCRASQSVSMPFLAWYQQKPGQAPRLLIYGASSRATGIPDRFSGSGSGTDFTLTISRLEPEDFAVYYCQQMRGRPPTFGQGTKVEIKSSSSGSSSSGSSSSGEVQLLESGGGLVQPGGSLRLSCAASGFTFSLFTMSWVRQAPGKGLEWVSAISGSGGSTYYADSVKGRFTISRDNSKNTLYLQMNSLRAEDTAVYYCAKSTHLYLFDYWGQGTLVTVSSGGSGGEIVLTQSPGTLSLSPGERATLSCRASQSVSMPFLAWYQQKPGQAPRLLIYGASSRATGIPDRFSGSGSGTDFTLTISRLEPEDFAVYYCQQMRGRPPTFGQGTKVEIK",< 5%
